# Experimental data from the supplement of paper PMC8728848.
# This is one part of the list.
# B1: Nc3LysM-2 (protein)
# chain: AHVLQARQSVSCDFATAANTGDTCASFAAAWGITEAAFAKLNPGVSCPGNLIAGSEYCVIGTVSTGAPTTTKAATTSTTPPTTTTTTKATTLSTSTTSVSPTGPSPQMPSITSTCNKFYQVQSGDGCWSIEQAQGVSASDFMAWNKAVDAQCDNLWLGYYVCVGVKGGSSPPPTTTTKPASSSAPTPQMPNTVSNCKKFHKVVSGDGCWAIEQAAGISASDFAKWNPYVDAACDNLWLGYYVCIGV
# Experiments:
# Test in all cases: glycan array binding signal (z-score within array); higher = stronger binding
# Settings in all cases: glycan notation: IUPAC condensed, linker removed
# [1] = biological target: GlcNAc(b1-3)Gal(b1-4)GlcNAc(b1-3)Gal(b1-4)GlcNAc(b1-3)GalNAc
# Method in brief: (§1)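 Glycan array binding is given as a within-array Z-score, which can be read as non-binding when negative. The arrays, 3228 of them, came from the Consortium for Functional Glycomics database and were retained only where the protein sequence was available. Z-scores were averaged across arrays of the same protein sequence at different concentrations or buffers and across linkers.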
# [2] = biological target: GlcNAc(b1-3)Gal(b1-4)GlcNAc(b1-3)GalNAc
# Method in brief: as §1
# [3] = biological target: GlcNAc(b1-3)Gal(b1-4)GlcNAc(b1-3)[GlcNAc(b1-3)Gal(b1-4)GlcNAc(b1-3)]GalNAc
# Method in brief: as §1
# [4] = biological target: GlcNAc(b1-3)Gal(b1-4)GlcNAc(b1-6)[Gal(b1-3)]GalNAc
# Method in brief: as §1
# [5] = biological target: GlcNAc(b1-3)Gal(b1-4)GlcNAc(b1-6)[GlcNAc(b1-3)Gal(b1-3)]GalNAc
# Method in brief: as §1
# [6] = biological target: GlcNAc(b1-3)Gal(b1-4)GlcNAc(b1-6)[GlcNAc(b1-3)]Gal(b1-4)GlcNAc
# Method in brief: as §1
# GlcNAc(b1-3)GalNAc = biological target: GlcNAc(b1-3)GalNAc
# Method in brief: as §1
# GlcNAc(b1-3)Man = biological target: GlcNAc(b1-3)Man
# Method in brief: as §1
# [7] = biological target: GlcNAc(b1-3)[GlcNAc(b1-4)][GlcNAc(b1-6)]GlcNAc
# Method in brief: as §1
# [8] = biological target: GlcNAc(b1-3)[GlcNAc(b1-6)]Gal(b1-4)GlcNAc
# Method in brief: as §1
# [9] = biological target: GlcNAc(b1-3)[GlcNAc(b1-6)]GalNAc
# Method in brief: as §1
# [10] = biological target: GlcNAc(b1-4)Gal(b1-4)GlcNAc
# Method in brief: as §1
# GlcNAc(b1-4)GlcNAc = biological target: GlcNAc(b1-4)GlcNAc
# Method in brief: as §1
# [11] = biological target: GlcNAc(b1-4)GlcNAc(b1-4)GlcNAc
# Method in brief: as §1
# [12] = biological target: GlcNAc(b1-4)GlcNAc(b1-4)GlcNAc(b1-4)GlcNAc(b1-4)GlcNAc
# Method in brief: as §1
# [13] = biological target: GlcNAc(b1-4)GlcNAc(b1-4)GlcNAc(b1-4)GlcNAc(b1-4)GlcNAc(b1-4)GlcNAc
# Method in brief: as §1
# [14] = biological target: GlcNAc(b1-4)[GlcNAc(b1-6)]GalNAc
# Method in brief: as §1
# [15] = biological target: GlcNAc(b1-6)Gal(b1-4)GlcNAc
# Method in brief: as §1
# GlcNAc(b1-6)GalNAc = biological target: GlcNAc(b1-6)GalNAc
# Method in brief: as §1
# [16] = biological target: GlcNAc6S(b1-3)Gal(b1-4)GlcNAc
# Method in brief: as §1
# Kdn(a2-3)Gal(b1-3)GalNAc = biological target: Kdn(a2-3)Gal(b1-3)GalNAc
# Method in brief: as §1
# Kdn(a2-3)Gal(b1-3)GlcNAc = biological target: Kdn(a2-3)Gal(b1-3)GlcNAc
# Method in brief: as §1
# Kdn(a2-3)Gal(b1-4)Glc = biological target: Kdn(a2-3)Gal(b1-4)Glc
# Method in brief: as §1
# Kdn(a2-3)Gal(b1-4)GlcNAc = biological target: Kdn(a2-3)Gal(b1-4)GlcNAc
# Method in brief: as §1
# [17] = biological target: Kdn(a2-3)Gal(b1-4)[Fuc(a1-3)]GlcNAc
# Method in brief: as §1
# Kdn(a2-6)Gal(b1-4)GlcNAc = biological target: Kdn(a2-6)Gal(b1-4)GlcNAc
# Method in brief: as §1
# [18] = biological target: Man(a1-2)Man(a1-2)Man(a1-3)Man
# Method in brief: as §1
# [19] = biological target: Man(a1-2)Man(a1-2)Man(a1-6)[Man(a1-3)]Man
# Method in brief: as §1
# Man(a1-2)Man(a1-3)Man = biological target: Man(a1-2)Man(a1-3)Man
# Method in brief: as §1
# [20] = biological target: Man(a1-2)Man(a1-3)[Man(a1-2)Man(a1-6)]Man
# Method in brief: as §1
# [21] = biological target: Man(a1-2)Man(a1-3)[Man(a1-2)Man(a1-6)]Man(a1-6)[Man(a1-2)Man(a1-2)Man(a1-3)]Man
# Method in brief: as §1
# [22] = biological target: Man(a1-2)Man(a1-3)[Man(a1-2)Man(a1-6)]Man(a1-6)[Man(a1-2)Man(a1-2)Man(a1-3)]Man(b1-4)GlcNAc(b1-4)GlcNAc
# Method in brief: as §1
# [23] = biological target: Man(a1-2)Man(a1-3)[Man(a1-6)]Man(a1-6)[Man(a1-2)Man(a1-3)]Man(b1-4)GlcNAc(b1-4)GlcNAc
# Method in brief: as §1
# [24] = biological target: Man(a1-2)Man(a1-6)[Man(a1-3)]Man(a1-6)[Man(a1-2)Man(a1-2)Man(a1-3)]Man
# Method in brief: as §1
# [25] = biological target: Man(a1-2)Man(a1-6)[Man(a1-3)]Man(a1-6)[Man(a1-2)Man(a1-2)Man(a1-3)]Man(b1-4)GlcNAc(b1-4)GlcNAc
# Method in brief: as §1
# Man(a1-3)[Man(a1-6)]Man = biological target: Man(a1-3)[Man(a1-6)]Man
# Method in brief: as §1
# [26] = biological target: Man(a1-3)[Man(a1-6)]Man(a1-6)[Man(a1-2)Man(a1-3)]Man(b1-4)GlcNAc(b1-4)GlcNAc
# Method in brief: as §1
binder,measurement,setting,value
B1,glycan array binding signal (z-score),[1],1.32
same,glycan array binding signal (z-score),[2],-0.769
same,glycan array binding signal (z-score),[3],-0.1
same,glycan array binding signal (z-score),[4],0.025
same,glycan array binding signal (z-score),[5],-1.18
same,glycan array binding signal (z-score),[6],-0.086
same,glycan array binding signal (z-score),GlcNAc(b1-3)GalNAc,-0.615
same,glycan array binding signal (z-score),GlcNAc(b1-3)Man,-2.18
same,glycan array binding signal (z-score),[7],-1.77
same,glycan array binding signal (z-score),[8],-0.242
same,glycan array binding signal (z-score),[9],1.23
same,glycan array binding signal (z-score),[10],-1.05
same,glycan array binding signal (z-score),GlcNAc(b1-4)GlcNAc,0.212
same,glycan array binding signal (z-score),[11],0.414
same,glycan array binding signal (z-score),[12],3.61
same,glycan array binding signal (z-score),[13],1.01
same,glycan array binding signal (z-score),[14],0.138
same,glycan array binding signal (z-score),[15],-0.473
same,glycan array binding signal (z-score),GlcNAc(b1-6)GalNAc,-0.378
same,glycan array binding signal (z-score),[16],-2.08
same,glycan array binding signal (z-score),Kdn(a2-3)Gal(b1-3)GalNAc,0.492
same,glycan array binding signal (z-score),Kdn(a2-3)Gal(b1-3)GlcNAc,-0.45
same,glycan array binding signal (z-score),Kdn(a2-3)Gal(b1-4)Glc,0.699
same,glycan array binding signal (z-score),Kdn(a2-3)Gal(b1-4)GlcNAc,1.91
same,glycan array binding signal (z-score),[17],-0.751
same,glycan array binding signal (z-score),Kdn(a2-6)Gal(b1-4)GlcNAc,0.173
same,glycan array binding signal (z-score),[18],0.951
same,glycan array binding signal (z-score),[19],1.14
same,glycan array binding signal (z-score),Man(a1-2)Man(a1-3)Man,0.233
same,glycan array binding signal (z-score),[20],-0.882
same,glycan array binding signal (z-score),[21],-0.422
same,glycan array binding signal (z-score),[22],1.17
same,glycan array binding signal (z-score),[23],-1.14
same,glycan array binding signal (z-score),[24],-1.62
same,glycan array binding signal (z-score),[25],1.1
same,glycan array binding signal (z-score),Man(a1-3)[Man(a1-6)]Man,-1.26
same,glycan array binding signal (z-score),[26],-0.822

# Two neighbouring records from above, for reference:
binder,measurement,setting,value
B1,glycan array binding signal (z-score),[7],-1.77
same,glycan array binding signal (z-score),[8],-0.242
